Source: the ROBIN nucleic acid binder screens (doi:10.1002/anie.202211358).

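Each compound is printed as two spots on a slide made to bind it covalently, so it has no test concentration; the read-out is fluorescence of the bound, labelled oligonucleotide. The data file lists only calls. An earlier report of the laboratory on the PreQ1, TPP and SAM-II riboswitches (doi:10.1038/s41467-019-09493-3) used 1 µM RNA for 2 h and required a mean Z-score above 3 (spot signal-to-noise against the whole library), a score well above that on a control array, and duplicate spots agreeing (coefficient of variation under 100); it then also set aside compounds that hit other targets, which this list keeps. The cut-offs behind this list may differ. These are primary screening calls, not affinities; a compound without a hit may have attached poorly or may still bind in solution.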 “active” means called a hit, “inactive” means screened and not called a hit. The compounds are a random part of those screened. A dash means that no call is listed here.

Targets (5′ to 3′):
TPP: TPP riboswitch RNA three-way junction, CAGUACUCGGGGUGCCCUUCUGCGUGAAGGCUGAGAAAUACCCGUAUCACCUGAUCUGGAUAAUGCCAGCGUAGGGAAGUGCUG. Hit rate about 0.7% of about 24,000 compounds.
PreQ1: PreQ1 riboswitch RNA pseudoknot, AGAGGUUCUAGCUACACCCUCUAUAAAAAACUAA. From B. subtilis. Hit rate about 0.7% of about 24,000 compounds.
SAM-II: SAM-II riboswitch RNA pseudoknot, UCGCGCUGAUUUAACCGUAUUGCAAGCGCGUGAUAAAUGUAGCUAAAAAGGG. Hit rate about 1% of about 21,000 compounds.

compound	TPP	PreQ1	SAM-II
Cc1cc(C)n(-c2cccc(CN3CCC(N)(C(=O)O)C3)c2)n1 (centres undefined)	inactive	inactive	inactive
Cc1n[nH]c(C)c1CCC(=O)N1CC[C@@H](NC(=O)c2cnccn2)[C@H](O)C1	inactive	inactive	inactive
CCNc1nc(N(C)C)nc(-n2cnc(SCc3ccccc3)n2)n1	inactive	inactive	-
CN(C)Cc1nnc(C2CCN(Cc3ccc(C#CCO)cc3)CC2)n1C	inactive	inactive	inactive
CN(C)C(=O)C(CCN1CCC(O)(c2ccc(Cl)cc2)CC1)(c1ccccc1)c1ccccc1	inactive	inactive	inactive
Cc1ccc(CN(CCCO)C(=O)CCn2ccnc2C)s1	inactive	inactive	inactive
CCc1nn2c(NCCN(C)C)cc(C)nc2c1-c1ccc(F)cc1	inactive	inactive	-
CN(CCCN1CCCCCC1)C(=O)c1ccccc1NCC(=O)O	inactive	inactive	inactive
COC(=O)c1ccc(Nc2nc(C)c3ncn(-c4ccc(C(=O)OC)cc4)c3n2)cc1	inactive	inactive	inactive
CCN1CCc2[nH]cnc2C12CCN(c1nc3ccccc3n1CCO)CC2	inactive	inactive	inactive
Cc1c(N)c2ccc(Oc3ccccc3)cc2[s+]1[O-] (centres undefined)	inactive	inactive	inactive
O=C(Cc1ccccc1)N1CCC(C(=O)N2CCOCC(O)C2)CC1 (centres undefined)	inactive	inactive	inactive
CCOC(=O)c1cnc2c(-c3ccc(Cl)cc3)c(C)nn2c1N	inactive	inactive	inactive
CC1=CC(C)(C)Nc2ccc(OC(=O)c3sc4cc([N+](=O)[O-])ccc4c3Cl)cc21	inactive	inactive	inactive
Cc1[nH]c2ccc(C(=O)N3CCC(Cc4cccc(CO)c4)C3)cc2c1C (centres undefined)	inactive	inactive	inactive
O=c1[nH]c2cc(F)ccc2cc1Cn1cnc2sc3c(c2c1=O)CCNC3	inactive	inactive	inactive
CC=C(C(=CC)c1ccc(O)cc1)c1ccc(O)cc1	inactive	inactive	inactive
CCn1nc(C)c(NC(=O)CNCc2ccc(OC)c(F)c2F)c1C	inactive	inactive	inactive
O=C(OCCCNC1=NS(=O)(=O)c2ccccc21)c1ccc(S(=O)(=O)N2CCCCC2)cc1	inactive	inactive	inactive
COc1nccc(N)n1	inactive	inactive	inactive
CC(=CC(=O)Nc1ccccc1C(=O)O)c1ccc2ccccc2c1	inactive	inactive	inactive
CCOC(=O)c1nnn(-c2nonc2N)c1CN(CC)CC	inactive	inactive	inactive
CNC(=O)[C@@H]1C[C@@H](N)CN1S(=O)(=O)c1ccc(OC(F)F)cc1	inactive	inactive	inactive
CC(=O)N1C(Nc2ccccc2)CCN1C(C)C (centres undefined)	inactive	inactive	inactive
COCc1cc(C)nc2sc3c(=O)n(CCO)c(-c4ccccc4OC)nc3c12	inactive	inactive	inactive
Cc1cc2cc3c(C)cc(=O)oc3c(C)c2o1	inactive	inactive	inactive
Cc1cccc(C)c1NCc1c(F)cccc1F	inactive	inactive	inactive
CCC(Nc1cccc(OC)c1)C(=O)N1CCC(O)(c2ccc(C)cn2)CC1 (centres undefined)	inactive	inactive	inactive
CC(=O)c1ccc(Nc2cc(C)nc3ncnn23)cc1	inactive	inactive	inactive
N#Cc1nnn(-c2ccc(Cl)cc2)c1N	inactive	inactive	inactive
COc1cccc2c1C(CO)N1C(C#N)C3CC(C(=O)O)C(C1C2)N3C (centres undefined)	inactive	inactive	inactive
COc1cc2c(NCc3ccccc3)cc(O)c(CC(=O)Nc3ccccc3)c2cc1OC	inactive	inactive	inactive
N#CC1=C(N)Oc2[nH]nc(-c3ccc(F)cc3)c2C1c1cccc(F)c1 (centres undefined)	inactive	inactive	inactive
Cc1c(N2CCCC2)cc2c(c1NC(=O)c1ccccc1Cl)C(C)(C)CC2(C)C	inactive	inactive	inactive
COc1cc(C(=O)NC2CCN(C)CC2)ccc1Nc1ncc2c(n1)N(C1CCCC1)CCC(=O)N2C(C)C	inactive	inactive	inactive
Fc1ccc(C(Nc2ccccn2)c2c[nH]c3ccccc23)cc1 (centres undefined)	inactive	inactive	inactive
CCC(O)c1nc2ccccc2n1Cc1cccc2ccccc12 (centres undefined)	inactive	inactive	inactive
CCCC(NCc1ccc2c(c1)n(C)c(=O)n2C)c1ccccc1 (centres undefined)	inactive	inactive	-
C=CCN1CCC(CNCc2cn(CC=C)nc2C)C1 (centres undefined)	inactive	inactive	inactive
Fc1ccc(CNCCc2c[nH]c3ccccc23)cc1	inactive	inactive	inactive
COCCCNc1nc2c(c(=O)n(C)c(=O)n2C)n1Cc1ccccc1Cl	inactive	inactive	inactive
CCCN1C(=O)C(Cc2nc3ccccc3c(=O)n2CCCO)c2ccccc21 (centres undefined)	inactive	inactive	-
COc1cccc(Nc2cc(C)nc3cc(-c4ccccc4OC)nn23)c1	inactive	inactive	-
CCC(O)CNS(=O)(=O)c1ccc(C(=O)NCc2ncc[nH]2)cc1 (centres undefined)	inactive	inactive	inactive
C=CCNC1=C(C(=O)CCC(=O)OC)C(=O)CC(C)(C)C1	inactive	inactive	inactive
CC1CCC(C(=O)N(c2cc(C#CC(C)(C)C)sc2C(=O)O)C2CCC(O)CC2)CC1 (centres undefined)	inactive	inactive	inactive
CN1C[C@H](NC(=O)CCNC(=O)c2ccc(F)cc2)C[C@H]1CO	inactive	inactive	inactive
O=C(CCN1CCOCC1)N1CCC(C(O)CCc2ccccc2)CC1 (centres undefined)	inactive	inactive	inactive
O=C(C1CCC(CNc2c(N3CCCC3)c(=O)c2=O)CC1)N1CCN(c2ccccc2F)CC1 (centres undefined)	inactive	inactive	-
CCN1CCCC1CNCc1ccc2c(c1)OCCO2.Cl.Cl (centres undefined)	inactive	inactive	inactive
CCNC(=O)c1nn(-c2ccccc2C)nc1CO	inactive	inactive	-
O=C(CCc1cccnc1)N1Cc2cnn(CCO)c2C1	inactive	inactive	inactive
Nc1c(C(=O)NCc2ccc3c(c2)OCO3)sc2ncccc12	inactive	inactive	inactive
C1CCc2[nH]nc(CNC3CSCCSC3)c2CC1	inactive	inactive	inactive
CN(C)Cc1nnc(C2CCN(c3nccc(N)n3)CC2)n1C1CC1	inactive	inactive	inactive
CCCCS(=O)(=O)N1C[C@H](c2ccc(C)o2)[C@@H](N)C1	inactive	inactive	inactive
COC(=O)C1=C(C)OC(N)=C(C(=O)OC)C12C(=O)N(C)c1ccccc12 (centres undefined)	inactive	inactive	inactive
O=C(c1ccon1)N1CCC2(CCN(Cc3ccc(F)cc3)CC2)C(CO)C1 (centres undefined)	inactive	inactive	inactive
COCCNCC1C(Oc2ccc(Cl)cc2)C(=O)N1c1ccc(C)cc1 (centres undefined)	inactive	inactive	inactive
Cc1ccc(Nc2nc(C)cc(N3CCN(C(=O)c4ccco4)CC3)n2)cc1	inactive	inactive	-
CNC(=O)[C@@H]1C[C@@H](N)CN1Cc1nccn1-c1ccc(OC)cc1	inactive	inactive	inactive
Cc1ccccc1-c1cccc(-c2nccn2CCO)c1	inactive	inactive	inactive
Nc1nc(-c2ccc(-c3ccc(F)c(CO)c3)cc2)cs1	active	active	inactive
N#CC1=C(N)OC2=C(C(=O)CCC2)C1c1cccc(Cl)c1Cl (centres undefined)	inactive	inactive	inactive
Cc1cc(C)n(-c2nc(NCCCN(C)C)c3c4c(sc3n2)COC(C)(C)C4)n1	inactive	inactive	inactive
CC(c1ccccc1)n1c(CCNC(=O)CCCO)nc2ccccc21 (centres undefined)	inactive	inactive	-
Cc1sc(N)nc1-c1ccccc1	inactive	inactive	inactive
Cc1nc2ccnn2c(O)c1CCc1ccccc1	inactive	inactive	inactive
CC(C)c1cc(N(C)Cc2cccnc2)nc(N)n1	inactive	inactive	inactive